In paper PMC6203792, “An IL13Rα2 peptide exhibits therapeutic activity against metastatic colorectal cancer” (British Journal of Cancer, 2018):
No constants are given. Whether binding was seen depends on the method and setting. Some entries that bind do so weakly or less than the wild type.

Protein sequences, listed by entry. Tags and fused reporters are not part of them. Residues count along the entry.
UniProt P35225, residues 25-146: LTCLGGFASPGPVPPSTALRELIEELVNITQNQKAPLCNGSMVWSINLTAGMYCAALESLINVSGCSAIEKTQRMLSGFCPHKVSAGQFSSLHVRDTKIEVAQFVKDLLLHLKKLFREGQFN

T1: purified IL13Rα2 ectodomain (UniProt Q14627)
T1 sequence: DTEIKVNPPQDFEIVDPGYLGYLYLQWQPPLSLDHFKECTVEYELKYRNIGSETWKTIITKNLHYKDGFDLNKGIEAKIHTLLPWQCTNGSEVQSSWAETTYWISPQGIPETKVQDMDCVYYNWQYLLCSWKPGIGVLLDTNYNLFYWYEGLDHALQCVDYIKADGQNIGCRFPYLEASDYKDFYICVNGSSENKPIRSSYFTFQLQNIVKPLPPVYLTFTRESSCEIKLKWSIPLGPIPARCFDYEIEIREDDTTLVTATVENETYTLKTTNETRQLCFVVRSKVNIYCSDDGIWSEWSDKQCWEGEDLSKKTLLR


Key:
[1] = molecular target: T1, purified IL13Rα2 ectodomain; experiment: ELISA; competition ELISA; IL13Rα2 ectodomain coated at 3 μg/mL on Maxisorp plates; IL-13 (0.3 μg/mL) and D1 peptides (1–50 µg/ml) added together, 1.5 h at room temperature; bound IL-13 detected with peroxidase-labelled anti-IL-13 antibody; both purified
[2] = molecular target: Recombinant human IL-13 (human) (UniProt P35225); experiment: as above

| Molecule | binding [1] | binding [2] |
| --- | --- | --- |
| Recombinant human IL-13 (from UniProt P35225 25-146) (ligand) | binds | – |
| GSETWKTIITKN [IL13Rα2 D1 peptide] | – | binds weakly |
| GSETWKTIITKN (consisting of D amino acids (all residues)) [D-D1 enantiomer peptide] | – | binds |
